A word on the AC50: it is the concentration at which the activity in the assay is half-maximal. Read a low AC50 as greater potency.

A short description of this assay: qHTS Assay for Lipid Storage Modulators in Drosophila S3 Cells.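 For cell number change: cells counted by Cell Tracker Red CMTPX staining in the red channel.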 Conditions: BODIPY lipid droplet fluorescence, 18-24 h; for cell number change: measured here: cell count max response, cells fed with added oleic acid. Summed up: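 Drosophila S3 cells loaded with oleic acid (400 uM, as added) and compounds at several concentrations; lipid droplets imaged by 488-nm laser-scanning cytometry, 500–530 nm intensity and object ratio to cell channel. Percent activity normalized to 20 uM Triacsin C.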

Where [1] appears, read: measured here: cell number channel AC50, cells fed with added oleic acid.
Where [2] appears, read: measured here: lipid fluorescence (Fed channel) AC50, cells fed with added oleic acid.

Each structure is given as a SMILES string. The list shows a part of the results. The main result of the screen is listed elsewhere. These columns were measured beside it and carry no call. The list favours compounds with an active or inconclusive main result. The note in brackets gives the kind of curve behind each potency; many fits are weak.

With `Cc1sc(NC(=O)CCCC(=O)O)c(C(N)=O)c1-c1ccccc1`, the cell number change came to 11.5%. For the same molecule, under setting [1], the concentration at half-maximal activity (AC50) is 4110 nM [falling, single point]. Also, the AC50 under setting [2] is 2910 nM [falling, partial curve].
On to `COc1ccccc1C(=O)Nc1ccc2c(c1)CN(C(=O)CSC)CC2`, for which the cell number change is -16.3%. Besides, under setting [2], the AC50 is 11600 nM [falling, partial curve].
Consider `O=C(N/N=C/c1ccccc1Cl)c1[nH]c2ccc(Br)cc2c1-c1ccccc1`, for which the cell number change was -18%. Moreover, the AC50 under setting [2] was 16400 nM [falling, single point].
For the molecule `CC(C)(C)C1CCC(=NNC(=O)C2COc3ccccc3O2)CC1` (stereo not given), the cell number change is -1%. Also, the AC50 under setting [2] is 146 nM [rising, full curve, poor fit].
For the molecule `CCc1ccc(C2CC(=O)Nc3c2c(=O)nc2c(C)cccn32)cc1` (stereo not given), the cell number change was -28.8%. For the same molecule, the AC50 under setting [1] is 4.61 nM [falling, full curve, poor fit].
Regarding `O=C(Nc1nc2ccc([N+](=O)[O-])cc2s1)c1c(F)cccc1F`, the cell number change came out at 5.98%. Also, the AC50 under setting [1] was 6510 nM [falling, single point]. The AC50 under setting [2] is 3660 nM [falling, partial curve, poor fit].
`CC(C)(C)c1ccc(C(=O)NN=C2CCCC2)cc1`: the cell number change was determined as 29.5%. Further, under setting [2], the AC50 is 11600 nM [falling, single point].
Turning to `O=C(Nc1ccc(Cl)cc1F)C1CCN(S(=O)(=O)c2cccc3nonc23)CC1`, the cell number change was determined as 8.11%. Further, the AC50 under setting [2] is 6510 nM [rising, single point].
As to `Cn1c(=O)c2nnn(/N=C(\c3ccccc3)C3CC3)c2n(C)c1=O`, the cell number change was -0.612%.
In the case of `C=CCOc1cccc(/C=C2\C(=O)N(Cc3ccc(C)cc3)C(C)=C2C(=O)OC)c1`, the cell number change is -0.141%. For the same molecule, the AC50 under setting [2] is 3260 nM [rising, single point].
Consider `NNC(=O)c1ccc(Cn2cc(Cl)cn2)cc1`, for which the cell number change is 62%. Besides, the AC50 under setting [1] is 103 nM [rising, full curve, poor fit]. Also, the AC50 under setting [2] was 16400 nM [rising, partial curve].
With `C[C@@H](NC(=O)Cn1ccc(N)nc1=O)c1cccc2ccccc12`, the cell number change was -8.06%. Moreover, under setting [2], the AC50 was 651 nM [rising, single point].
Take `CC(C)NC(=O)C1CCN(C(=O)C(C(=O)c2ccccc2)n2cc(Cl)ccc2=O)CC1` (stereo not given): the cell number change amounted to 0.934%. The AC50 under setting [2] is 32600 nM [falling, partial curve].
For `COc1ccc(/C=C/C(=O)NCCCc2ccccc2)cc1OC`, the cell number change is -56.5%. Besides, the AC50 under setting [1] was 29100 nM [falling, single point]. Besides, the AC50 under setting [2] is 3260 nM [rising, full curve, poor fit].
For `COc1ccc(CCNC(=O)c2ccc(CNS(=O)(=O)c3cccc(Cl)c3)cc2)cc1OC`, the cell number change was -29.8%.
For the molecule `O=C(O)c1ccccc1C(=O)NCC(O)COc1ccc(Cl)cc1` (stereo not given), the cell number change came to 27.4%.
For `COc1cccc(OC)c1OCCN1CCCC1`, the cell number change was determined as 9.46%.
Regarding `COc1cccc(C2/C(=C(\O)c3c(C)nc4c(C)cccn34)C(=O)C(=O)N2CCCN(C)C)c1OC` (stereo not given), the cell number change is -30%. Moreover, the AC50 under setting [1] is 6510 nM [falling, full curve, poor fit]. Further, the AC50 under setting [2] is 5800 nM [falling, full curve].
For `CC(SCCc1ccccn1)C(=O)O` (stereo not given), the cell number change was 39.7%. Besides, the AC50 under setting [2] is 4.61 nM [rising, full curve, poor fit].
On to `COP(=O)(CN(Cc1ccccc1)C(=S)Nc1c(C)cccc1C)OC`, for which the AC50 under setting [1] is 1840 nM [rising, partial curve, poor fit] and the AC50 under setting [2] is 1460 nM [rising, partial curve].
Regarding `Cc1csc(SC(C)C(=O)Nc2ccc(S(=O)(=O)N3CCCC3)cc2)n1` (stereo not given), the cell number change was -10.6%. Further, under setting [2], the AC50 was 5.17 nM [rising, full curve, poor fit].
`CC(C)CCC(C)NC(=O)CN1C(=O)NC(C)(c2ccc3ccccc3c2)C1=O` (stereo not given): the cell number change came to 23.2%.
As to `Cc1cccc(N(C(=O)CCC(=O)Nc2ccccn2)C(C(=O)NC(C)C)c2ccc(O)cc2)c1` (stereo not given), the cell number change is 6.48%.
As to `CC1=C(C(=O)OC2CCCCC2)C(c2cccc([N+](=O)[O-])c2)NC(=O)N1` (stereo not given), the cell number change came out at 8.11%. Moreover, under setting [2], the AC50 is 820 nM [falling, full curve].
For the molecule `Cc1nc(-c2ccc(C(=O)Nc3ccc(F)cc3)cc2)cs1`, the cell number change amounted to 10.8%. Also, the AC50 under setting [1] was 2910 nM [falling, single point].
For the molecule `COc1ccc(C(C)NC(=O)Nc2ccc(C(C)=O)cc2)cc1OC` (stereo not given), the cell number change was determined as 51.2%. Further, the AC50 under setting [1] is 10300 nM [rising, partial curve, poor fit]. Moreover, the AC50 under setting [2] is 6510 nM [rising, partial curve].
Take `CCOc1ccc(/C=N/NC(=O)c2nnn(-c3nonc3N)c2CN2CCC(C)CC2)cc1`: the cell number change was -10.3%. Moreover, the AC50 under setting [2] is 116 nM [falling, full curve, poor fit].
For the molecule `O=C(CN1C(=O)COc2ccccc21)NCCCN1CCCCC1`, the cell number change was -25.7%.
For `CNCC(=O)Nc1ccc(Cl)c(C(F)(F)F)c1`, the cell number change amounted to 48%. Besides, under setting [2], the AC50 was 20600 nM [rising, single point].
In the case of `COc1ccc(/C=C/C(=O)Nc2ccc(-n3nncc3-c3ccccc3)cc2)cc1OC`, the cell number change came to 1.54%. The AC50 under setting [2] was 920 nM [rising, full curve].
Regarding `Cc1ccc(-n2c(-c3ccccc3)c[n+]3c2CCC3)cc1`, the cell number change was -35%.
As to `S=C1NC2(CCCCC2)NN1c1ccccc1`, the AC50 under setting [2] is 366 nM [falling, single point].
Regarding `COC(=O)C1CCN(C(=O)COC(=O)c2ccc(OC)c(S(=O)(=O)N3CCCc4ccccc43)c2)CC1`, the AC50 under setting [1] was 82 nM [falling, full curve, poor fit].
As to `CCC1C/C(=C/c2cccs2)C(=O)/C(=C/c2cccs2)C1` (stereo not given), the cell number change amounted to 12.3%. Besides, the AC50 under setting [2] was 164 nM [rising, full curve, poor fit].
Turning to `COc1ccc(/C=C/CN2CCC(n3nccc3NC(=O)C3CC3)CC2)cc1`, the cell number change turned out to be 20.5%.
Take `Cc1ccc(CNCC(=O)Nc2cccc(S(=O)(=O)NC3=NCCCCC3)c2)cc1`: the AC50 under setting [2] is 2910 nM [rising, single point].
Regarding `COc1cccc(OC)c1C(=O)OCC(=O)Nc1ccc(OC(F)(F)F)cc1`, the AC50 by setting is: under setting [1], 3260 nM [rising, partial curve]; under setting [2], 1030 nM [rising, partial curve].
`Cc1cc(NC(c2ccc(Cl)cc2)c2ccc3cccnc3c2O)no1` (stereo not given): the AC50 under setting [2] is 580 nM [falling, single point].
With `CC(NC(=O)C(=O)Nc1nccs1)c1ccccc1` (stereo not given), the cell number change was -31.1%. Further, the AC50 under setting [1] was 1840 nM [rising, single point].
Consider `O=C(OCCc1ccccc1)c1cc(O)c(O)c(O)c1`, for which the cell number change is -34.6%. Also, the AC50 under setting [1] was 18400 nM [falling, single point]. Besides, under setting [2], the concentration at half-maximal activity (AC50) was 2060 nM [falling, partial curve, poor fit].
On to `CCCSc1nnc(NC(=O)c2ccco2)s1`, for which the cell number change came out at 17.1%. Besides, under setting [2], the AC50 was 206 nM [rising, full curve, poor fit].
On to `CN(C)C(=O)COC(=O)c1cccc(S(=O)(=O)N2CC3(C)CC2CC(C)(C)C3)c1` (stereo not given), for which the cell number change is -0.187%.
Consider `Cc1nn(C(=O)CCC(=O)NCc2ccc(OC(C)C)cc2)c2ccccc12`, for which, under setting [1], the AC50 is 2910 nM [rising, partial curve, poor fit].
Regarding `CC(C)N(Cc1ccccc1)C(=S)Nc1ccc(F)cc1`, the AC50 under setting [2] is 116 nM [falling, full curve, poor fit].
Consider `Cc1ccc(-c2nnc(SCC(=O)N/N=C/c3ccccc3C(=O)O)n2C2CCCCC2)cc1`, for which the cell number change is -11.3%. For the same molecule, the AC50 under setting [2] is 18400 nM [rising, partial curve].
For `Cc1nnc(SCC(=O)Nc2cc(Cl)ccc2Cl)n1CC1CCCO1` (stereo not given), the cell number change is 13.3%.
As to `O=c1cc(/C=C/c2cccs2)[nH]c2ccccc12`, the AC50 under setting [2] was 6510 nM [falling, single point].
Consider `CN(CCC#N)C(=O)c1cc2c(s1)-c1ccccc1SC2`, for which the AC50 under setting [1] is 1640 nM [rising, partial curve].
`C[C@H](NS(=O)(=O)c1ccccc1)C(=O)OCC(=O)NC(=O)Nc1ccc2c(c1)OCCO2`: the cell number change is 2.61%. Under setting [2], the AC50 was 580 nM [falling, single point].
As to `Cc1ccc(C)c(N2CCN(S(=O)(=O)c3ccc(-c4cc(C)no4)s3)CC2)c1`, the cell number change was 56%. For the same molecule, the AC50 under setting [1] is 9200 nM [rising, partial curve].
In the case of `COc1ccc(OC(C)C(=O)NC2CC(C)(C)NC(C)(C)C2)cc1` (stereo not given), the cell number change is -26.2%. Further, the AC50 under setting [1] was 366 nM [falling, full curve, poor fit]. Besides, under setting [2], the AC50 is 651 nM [falling, single point].
For the molecule `O=C(Nc1ccncc1)c1cc(F)cc(F)c1`, the cell number change came out at 43.1%. Further, the AC50 under setting [1] was 18400 nM [rising, partial curve, poor fit].
Take `Cc1cccn2cc(CNC(=O)CC3CCCC3)nc12`: the cell number change was -143%. Also, the AC50 under setting [1] is 29100 nM [falling, single point].
Regarding `Cc1sc2nc(CN3CCOCC3)nc(NS(=O)(=O)c3ccccc3)c2c1C`, the cell number change was 46.9%. Besides, the AC50 under setting [1] was 9200 nM [rising, partial curve].
On to `CCCN(CC(=O)Nc1ccccc1C)C(=O)c1ccc2[nH]c3c(c2c1)CC(C)CC3` (stereo not given), for which the cell number change was -17.1%. Besides, the AC50 under setting [2] was 3660 nM [falling, partial curve].
Consider `CN(C)c1ccc(NC(=O)Cn2ncn3c(cc4ccccc43)c2=O)cc1`, for which the cell number change is -0.81%. For the same molecule, under setting [2], the AC50 is 820 nM [rising, full curve].
With `O=S(=O)(N/N=C/c1ccc2c(c1)OCO2)c1ccc(Br)cc1`, the cell number change is -9.73%. Further, the AC50 under setting [2] was 29100 nM [falling, single point].
For the molecule `O=C(C1CC1)N1CCc2cc(Br)cc(S(=O)(=O)NCCN3CCOCC3)c21`, the cell number change was 6.38%. Besides, the AC50 under setting [2] is 1160 nM [falling, single point].
As to `O=C(CSc1nc2nc(-c3cccs3)cc(C(F)(F)F)c2c(=O)[nH]1)Nc1c(F)c(F)c(F)c(F)c1F`, the cell number change was 34%. In addition, the AC50 under setting [1] was 13000 nM [rising, partial curve, poor fit].
Regarding `O=C(c1cccc([N+](=O)[O-])c1)c1ccc2c(c1)C(=O)NC2=O`, the cell number change is -14.2%. For the same molecule, the AC50 under setting [1] is 651 nM [falling, full curve, poor fit].
Consider `CCC(C)[C@H](NC(=O)N1CC(=O)Nc2ccccc21)C(=O)N[C@H](Cc1c[nH]c2ccccc12)C(=O)O` (stereo not given in full), for which the cell number change is -11.7%.
